Assay results taken from publication PMC9948308, “DnaK and DnaJ proteins from Hsp70/40 family are involved in Rubisco biosynthesis in Synechocystis sp. PCC6803 and sustain the enzyme assembly in a heterologous system” (BMC Plant Biology, 2023).
These are yes or no findings as the source states them, for the method shown. Some binding calls cover weakened binding; strength is not graded here. For some of these results: Tags and fused reporters may be left off the sequences shown.

By UniProt entry, the sequences of proteins in these tests, tags left out.
UniProt P54205: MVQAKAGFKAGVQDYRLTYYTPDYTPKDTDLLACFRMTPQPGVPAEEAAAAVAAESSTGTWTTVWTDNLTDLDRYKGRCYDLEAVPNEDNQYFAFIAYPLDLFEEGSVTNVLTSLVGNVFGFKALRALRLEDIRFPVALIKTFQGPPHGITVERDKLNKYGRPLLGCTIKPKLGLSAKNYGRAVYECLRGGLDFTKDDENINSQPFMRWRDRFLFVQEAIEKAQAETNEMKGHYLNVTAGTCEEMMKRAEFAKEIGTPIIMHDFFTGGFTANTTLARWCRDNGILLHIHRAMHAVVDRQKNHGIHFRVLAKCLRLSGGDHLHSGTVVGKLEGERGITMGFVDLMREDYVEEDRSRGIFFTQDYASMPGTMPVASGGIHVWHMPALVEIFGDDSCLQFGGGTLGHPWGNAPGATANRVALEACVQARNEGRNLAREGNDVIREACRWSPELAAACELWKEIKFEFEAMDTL
UniProt P22358: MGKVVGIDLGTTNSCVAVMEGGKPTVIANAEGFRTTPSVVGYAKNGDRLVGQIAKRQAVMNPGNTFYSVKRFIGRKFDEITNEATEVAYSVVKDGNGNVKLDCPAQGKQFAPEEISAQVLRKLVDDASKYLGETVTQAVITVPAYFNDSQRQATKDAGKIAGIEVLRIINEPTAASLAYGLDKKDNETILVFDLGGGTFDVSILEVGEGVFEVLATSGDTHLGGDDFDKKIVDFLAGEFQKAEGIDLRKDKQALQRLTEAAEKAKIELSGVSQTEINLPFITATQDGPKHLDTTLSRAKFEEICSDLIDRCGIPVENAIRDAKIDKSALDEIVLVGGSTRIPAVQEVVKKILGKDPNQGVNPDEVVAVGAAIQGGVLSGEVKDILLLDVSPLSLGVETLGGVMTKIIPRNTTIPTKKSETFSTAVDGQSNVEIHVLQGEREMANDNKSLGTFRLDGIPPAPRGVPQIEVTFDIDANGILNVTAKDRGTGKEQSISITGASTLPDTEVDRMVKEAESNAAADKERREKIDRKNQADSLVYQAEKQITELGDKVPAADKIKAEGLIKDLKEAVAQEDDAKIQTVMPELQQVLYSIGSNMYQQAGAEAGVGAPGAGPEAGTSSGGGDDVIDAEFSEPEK

B1: RbcS from the LXS operon of Synechocystis sp. PCC6803, co-expressed in E. coli (protein, UniProt P54206 1-113)
chain: MKTLPKERRYETLSYLPPLTDQQIAKQVEFLLDQGFIPGVEFEEDPQPETHFWTMWKLPFFGGATANEVLAEVRECRSENPNCYIRVIGFDNIKQCQTVSFIVHKPNQNQGRY
B2: DnaJ Slr0093 from Synechocystis sp. PCC6803, His-tagged (protein, UniProt P50027 1-332)
chain: MASTDFKDYYQILGVTKTASEAEIKKQFRKLALKYHPDKNPGDKAAEEKFKEISEAYEVLSDPEKRQKYDQFGRYWQQAGTAGQPSGSYGPGVGVDFGGFDFSQYGNFDEFINELLGRFNTPGGGGQRTSYSYSTGGPGFNDFGGFGNAQAPAGDREATLQLTLAEAFRGVEKRLNLGEEMVTVRIPAGAKNGSRVRVRGKGMASPYGQRGDLYLNLQLTPHPFFQFEGDNLVCELAIAPDEAVLGADISVPTPDGMVRMKVPAGVKSGQSLRLKGKGWPNPKQGRGDQLVRLIITAPKNPSAIERECYEKIQAQRTENPRQAVEKYANLLA
B3: DnaJ Sll1933 from Synechocystis sp. PCC6803, His-tagged (protein, UniProt P73097 1-307)
chain: MEQVRNYYQILGVPRNATAEEIKKSFRKLARQYHPDVNPNDKTAEEKFKDINEAYDVLSDETKRRELDSRLFGRFRRPPTSRFSPNSNGGRSPNGTSVNGQVRTPTGRTGTRQPAQSWQDFSETRRTKVVSPARPVPRDVEANLTLPLEKAYRGGKERIRLEDGRSLEVEMPGGMGDGQRIRLKQQGINGGDLYLKINLSPHPLFTLQGTDIACQVPVTPSEAILGGAIEVMTIDGLVKMTVPAGLKNGQKLRLAKKGFPNNQGDRGDQLVEIRVEIPPEPSPEELELYRRIREKETFNPRQKFFDF

Tests used:
[1] = molecular target: RbcL (Rubisco large subunit) from Synechocystis sp. PCC6803, unfolded, isolated from inclusion bodies (Synechocystis sp. PCC6803) (UniProt P54205); experiment: 1,8-ANS displacement assay (fluorescence); DnaK2 tested together with DnaJ Sll1384 on unfolded RbcL with 1,8-ANS, with or without ATP; both purified
[2] = molecular target: RbcL (Rubisco large subunit) from Synechocystis sp. PCC6803, unfolded, isolated from inclusion bodies (Synechocystis sp. PCC6803) (UniProt P54205); experiment: condition: only with ATP alone, without DnaJ Sll1384; 5 µM DnaK2; 1,8-ANS displacement assay (fluorescence); DnaK2 (final 5 µM) added to unfolded RbcL with 1,8-ANS, ATP (5 mM) alone in the starting mixture, no DnaJ; both purified
[3] = molecular target: RbcL from the LXS operon of Synechocystis sp. PCC6803, co-expressed in E. coli (Synechocystis sp. PCC6803) (UniProt P54205); experiment: native gel or EMSA; soluble fraction of E. coli co-expressing the LXS operon with DnaK2, DnaJ Sll1384 and/or Raf1; 4-15% native PAGE, western blots
[4] = molecular target: RbcL, endogenous in Synechocystis sp. PCC 6803 (Synechocystis sp. PCC 6803 (endogenous in Synechocystis sp. PCC 6803)) (UniProt P54205); experiment: native gel or EMSA; soluble fraction of Synechocystis sp. PCC 6803 (wild type, Δraf1 and Δsll1384 strains); native PAGE, western blots with anti-RbcL, anti-DnaK, anti-DnaJ, anti-Raf1
[5] = molecular target: RbcL (Rubisco large subunit) from Synechocystis sp. PCC6803, unfolded, isolated from inclusion bodies (Synechocystis sp. PCC6803) (UniProt P54205); experiment: 1,8-ANS displacement assay (fluorescence); a single DnaJ homolog (final 5 µM) added to unfolded RbcL pre-equilibrated with 1,8-ANS; emission 470 nm, excitation 390 nm; 50 mM phosphate buffer pH 7, 0.5 M GndHCl; both purified

Molecule	binding [3]	binding [5]	further results
DnaK2 from Synechocystis sp. PCC6803, His-tagged (from UniProt P22358 1-636)			binding [1]: binds weakly; binding [2]: no binding
DnaK2 of Synechocystis sp. PCC6803, co-expressed in E. coli from pCDFDnaK2 (from UniProt P22358 1-636)	binds		
DnaK2, endogenous in Synechocystis sp. PCC 6803 (from UniProt P22358 1-636)			binding [4]: binds
B1	binds		
B2		no binding (tested: 5 µM)	
B3		no binding (tested: 5 µM)	
